This is one part of the list.

Protein sequences, listed by entry. Tags and fused reporters are not part of them.
UniProt Q0JBA9, entry or part of it: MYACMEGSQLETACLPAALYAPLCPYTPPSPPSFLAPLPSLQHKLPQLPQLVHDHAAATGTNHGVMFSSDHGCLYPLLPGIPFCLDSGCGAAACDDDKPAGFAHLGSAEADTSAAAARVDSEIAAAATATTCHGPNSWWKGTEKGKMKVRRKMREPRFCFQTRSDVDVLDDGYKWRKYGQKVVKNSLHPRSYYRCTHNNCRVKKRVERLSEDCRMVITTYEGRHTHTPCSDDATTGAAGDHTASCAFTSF

This assay addresses OsWRKY34 (Oryza sativa, UniProt Q0JBA9 1-250). The experiment in a line: protein-binding microarray (RPBM); PBS, 2% BSA, 51.3 ng/ul salmon testes DNA, 50 uM zinc acetate, 200 nM TF, 25 C, 1 h; high values mean tight binding. To be noted: protein: recombinant; tags: N-terminal polyhistidine and DsRed monomer fusion (pET32a); label: CyDye5-dUTP incorporated in the synthesized complementary strand; 3' TTTTT single-stranded linker to array surface; dsDNA, one strand shown. The gist of the method:
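An Axon 4000B scanner gave the binding signal as per-feature fluorescence intensity in arbitrary units. This followed washing of a custom Agilent array that had been incubated for 1 h at 25 °C with 200 nM protein in PBS, 2% BSA, salmon testes DNA and 50 µM zinc acetate. The proteins were transcription factors fused at the N-terminus to polyhistidine and DsRed, expressed in E. coli BL21-CodonPlus and purified on Ni–NTA.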
As to “CGTCTCTTTTACCTCAGTCTCGCGTATATCCTAATACCAACGGAGTCACCTAGTGCAG”, the binding signal was 10200 fluorescence intensity (a.u.).

Turning to “CGGACGCGACGGCTCAACCGCTTTGACCCACCTGTCAGTCCGGAGTCACCTAGTGCAG”, the binding signal is 8880 fluorescence intensity (a.u.).

As for “GCAAACCCTAACCTAACCCTAGCCCGCCCAGCGGCGGCGCCGGAGTCACCTAGTGCAG”, the binding signal is 8130 fluorescence intensity (a.u.).

As to “ATCCTTATACACAACCTAGCTTAATTAGCTCTCTCACCATCGGAGTCACCTAGTGCAG”, the binding signal was 9020 fluorescence intensity (a.u.).

Consider “TTCTGCGTCTTTTTCTGGCTTGTGGTGTCTAAGGTGCCATCGGAGTCACCTAGTGCAG”, for which the binding signal is 8250 fluorescence intensity (a.u.).

Regarding “GCAGCTCTACTGTTTTCCGCTTCCATCTTCTTCCTTTCTTCGGAGTCACCTAGTGCAG”, the binding signal was 16700 fluorescence intensity (a.u.).

On to “ACATTTTAATTTGTAGGGAGAGGTACTATGGGCTTAACTTCGGAGTCACCTAGTGCAG”, for which the binding signal is 9750 fluorescence intensity (a.u.).

Consider “TTTGTTCTCTTTTATATGTAACACTTGCATATTTACCTTCCGGAGTCACCTAGTGCAG”, for which the binding signal is 8980 fluorescence intensity (a.u.).

Consider “GTCATCTGATTGTCGTCCATTGTCTCAGTGTCTGTCTGTCCGGAGTCACCTAGTGCAG”, for which the binding signal was 10600 fluorescence intensity (a.u.).

Regarding “GTGCTTACCTTGTGCCTTGTCCGAGCTGTTGGTGGCTTCGCGGAGTCACCTAGTGCAG”, the binding signal is 9900 fluorescence intensity (a.u.).

Consider “GAAAAATATTGTTTCTCTCACCGACGCCCTTGATTCTTTCCGGAGTCACCTAGTGCAG”, for which the binding signal was 12500 fluorescence intensity (a.u.).

With “TCGTTCTTCATGGTTGGGGCTGATTAGGTTGATGAGATAGCGGAGTCACCTAGTGCAG”, the binding signal is 11500 fluorescence intensity (a.u.).

In the case of “ATATTTTTTTTCATCATAGTTTATTTTGCAGCCTCTGTTTCGGAGTCACCTAGTGCAG”, the binding signal is 9330 fluorescence intensity (a.u.).

As to “AGATAAGTGATGTGGTTGATACAGACAGTGGGGTGCATATCGGAGTCACCTAGTGCAG”, the binding signal was 9080 fluorescence intensity (a.u.).

“AAGAGGGTTTACCTTTTTTCGATTTTTTTTGCTATGCATACGGAGTCACCTAGTGCAG”: the binding signal is 8320 fluorescence intensity (a.u.).

With “CCATGCATCCCAAGTCATCACTGCTGTTCTTCCTCATGATCGGAGTCACCTAGTGCAG”, the binding signal is 9940 fluorescence intensity (a.u.).

With “GTGTAGTTTTTTTTTCTTCATTAGTTCAGTTGTACGCACGCGGAGTCACCTAGTGCAG”, the binding signal is 8370 fluorescence intensity (a.u.).

For the sequence “CCCCACATGCGCTGCCTCACCACTCTCACTGACGGGTGGACGGAGTCACCTAGTGCAG”, the binding signal was 8640 fluorescence intensity (a.u.).

“CGCCACTTCACCCTTGTTTTTTTTTTCCCCTTCTCGCAAACGGAGTCACCTAGTGCAG”: the binding signal is 11000 fluorescence intensity (a.u.).

With “CTCTTCTTCTTCTTCTTCTACTTGAGTAGACAGCCACCACCGGAGTCACCTAGTGCAG”, the binding signal was 8910 fluorescence intensity (a.u.).

For “TTTGGTTTCTCTAGTTCACTACCTTTCTGAAAACCACCGCCGGAGTCACCTAGTGCAG”, the binding signal is 8740 fluorescence intensity (a.u.).

Take “CCCGGCCTTAGCATACTATTATTTTAGCACTAATCTTAACCGGAGTCACCTAGTGCAG”: the binding signal was 9300 fluorescence intensity (a.u.).

Regarding “TTTTCGTTGTGTGGAGGTGCTGATTTGCTTGGTTTGAAGACGGAGTCACCTAGTGCAG”, the binding signal was 9930 fluorescence intensity (a.u.).

“ATATAAACCCTTGTTTTGTTCCGGCGGGGCGGGAGGCGATCGGAGTCACCTAGTGCAG”: the binding signal was 16400 fluorescence intensity (a.u.).

On to “TTGTCCAACCCGAGACCCCTAATTCCCCGCCGCGAAATCCCGGAGTCACCTAGTGCAG”, for which the binding signal was 8280 fluorescence intensity (a.u.).

For “ATAAGATATTTTTGACTTTGGTCAAAGTCAAATTGTTTCACGGAGTCACCTAGTGCAG”, the binding signal is 15300 fluorescence intensity (a.u.).

In the case of “TCTGTACCTGTACATCTGTAGCTGTCTGAATGGCCGACTTCGGAGTCACCTAGTGCAG”, the binding signal was 8130 fluorescence intensity (a.u.).

With “CTCGTCTCGTCTCGTCGCCTCGCCTCGCGAGTTCGCCCGCCGGAGTCACCTAGTGCAG”, the binding signal is 8940 fluorescence intensity (a.u.).

For the sequence “AAGTTAATTCCACCCTCCACTCCTCCATGTTCTTCTACTACGGAGTCACCTAGTGCAG”, the binding signal was 9490 fluorescence intensity (a.u.).

As for “ATCATCACACACACTCTCTCAATCGCTTTCTCTCTCTTCTCGGAGTCACCTAGTGCAG”, the binding signal is 10200 fluorescence intensity (a.u.).

In the case of “ATTCTGCCGGTTGCTTTTGCTGTCTTGGTCATCGCTTCGGCGGAGTCACCTAGTGCAG”, the binding signal was 9170 fluorescence intensity (a.u.).

Consider “CTCCAACCACCTCTCCGGTCGCCGTCAATCCTCGCCACACCGGAGTCACCTAGTGCAG”, for which the binding signal is 9600 fluorescence intensity (a.u.).

Regarding “ACTCGCTAGTCGCTACCACCAACATTTTCCTTCCGCTCTACGGAGTCACCTAGTGCAG”, the binding signal was 13500 fluorescence intensity (a.u.).

Regarding “TTGGTGTTGGATGATGGGTTGTAGTAGTGGTGCGCAAGGGCGGAGTCACCTAGTGCAG”, the binding signal was 11100 fluorescence intensity (a.u.).

Take “ACCCAATCTCAATTTGCCCTGTTGCCAACCCTAGTGATGACGGAGTCACCTAGTGCAG”: the binding signal is 8520 fluorescence intensity (a.u.).

Consider “GCCCCACTAATCAGCGTTCATTTGTCTACTTAATTTGTTCCGGAGTCACCTAGTGCAG”, for which the binding signal was 11000 fluorescence intensity (a.u.).

Turning to “CCTCCCATTGCTTCACATTTCTTCCTTCCCTTTTGCCTCCCGGAGTCACCTAGTGCAG”, the binding signal was 9580 fluorescence intensity (a.u.).

As to “GCTTCGTGGCCCTCGATCTGTGCTGTGCCCGCGCTGTCCACGGAGTCACCTAGTGCAG”, the binding signal was 8090 fluorescence intensity (a.u.).

Turning to “TATAAGTGTCGATTTTTCTTTAGAACCAACACCTATAGTTCGGAGTCACCTAGTGCAG”, the binding signal was 8240 fluorescence intensity (a.u.).

Take “TCTTCGTTGCTGCCTATCGTTCTTGTGTGTCCTAAAAAATCGGAGTCACCTAGTGCAG”: the binding signal was 14100 fluorescence intensity (a.u.).

Regarding “GGAAGCCATTTCACGTTCGAATCTTATGTCAGCCAGCTTACGGAGTCACCTAGTGCAG”, the binding signal is 8650 fluorescence intensity (a.u.).

In the case of “CTCGGTCTCGCCACGCTTCTGCCCATCCACAGCTGTCCCCCGGAGTCACCTAGTGCAG”, the binding signal is 9070 fluorescence intensity (a.u.).

The record behind these values is article PMC7819943, “Rice protein-binding microarrays: a tool to detect cis-acting elements near promoter regions in rice”.
